# Source: PubChem BioAssay AID1159597 (NIAID, 2016)
# Aim: 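Role of canonical TLR signalling genes in the human macrophage LPS response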
# Cells: human THP-1 B5 reporter clone (monocytic leukaemia line), PMA-differentiated to macrophage-like cells
# Knock-down reagent: single siRNA against human genes
# Timing: LPS for 4 h before read-out; assayed 48 to 72 h after siRNA transfection
# Conditions: LPS (Salmonella minnesota R595) for 4 h; concentration not given
# Read-out: 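After 4 h LPS, firefly TNF promoter luciferase over renilla, as a plate median/MAD robust z-score averaged across replicates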
# Scale: TNF reporter z-score: higher = stronger TNF promoter activity after LPS
# Active means: In these data the active calls have TNF reporter z-score, replicate mean at about -1.5 or lower, or at about 1.53 or higher
# Meaning of the calls: active = clear shift in reporter, either direction; inactive = little shift in reporter
# This is a random part of 756 reagents tested. 140 of them (19%) count as active. 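Calls mark clear shifts in either direction, lowered or raised; calls are per siRNA, gene-level medians over six siRNAs not deposited.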 A number with no mark means an inactive call. The numbers tell different reagents against one gene apart. The record does not give: the amount of reagent.
gene,siRNA no.,"TNF reporter z-score, replicate mean"
RELA,1,-1.78 (active)
RELA,2,-0.873
RELA,3,-1.1
RELA,4,-1.31
RELA,5,-0.454
RELA,6,-2.6 (active)
ATF2,1,-2.17 (active)
ATF2,2,0.0387
ATF2,3,-0.321
ATF2,4,-0.272
ATF2,5,-0.802
ATF2,6,-1.57 (active)
ATF7,1,-2.38 (active)
ATF7,2,-0.151
ATF7,3,-1.62 (active)
ATF7,4,-1.05
ATF7,5,-0.356
ATF7,6,0.485

Entries above whose target name begins with R or r (6):
gene,siRNA no.,"TNF reporter z-score, replicate mean"
RELA,1,-1.78 (active)
RELA,2,-0.873
RELA,3,-1.1
RELA,4,-1.31
RELA,5,-0.454
RELA,6,-2.6 (active)

Additional reagents follow:
gene,siRNA no.,"TNF reporter z-score, replicate mean"
TIRAP,1,-3.69 (active)
TIRAP,2,-3.2 (active)
TIRAP,3,-3.91 (active)
TIRAP,4,-0.52
TIRAP,5,-0.503
TIRAP,6,-2.54 (active)
PIK3CG,1,-2.3 (active)
PIK3CG,2,-0.447
PIK3CG,3,-0.156
PIK3CG,4,-0.368
PIK3CG,5,-0.454
PIK3CG,6,-1.18
PIK3R5,1,-0.189
PIK3R5,2,-0.544
PIK3R5,3,0.052
PIK3R5,4,-0.311
PIK3R5,5,1.18
PIK3R5,6,-2.15 (active)
TAB3,1,-0.7
TAB3,2,-0.613
TAB3,3,-0.391
TAB3,4,0.591
TAB3,5,0.574
TAB3,6,0.214
TLR7,1,-0.296
TLR7,2,-0.322
TLR7,3,-0.244
TLR7,4,-0.427
TLR7,5,-0.314
TLR7,6,0.52
